{"source": "the supplement of paper PMC8728848", "binders": {"B1": {"name": "PX14379D-pdi-530-26-530 (Parabacteroides distasonis) (protein)", "chain": "DETVYDKLPADDFGQSTAELNALIGNSHNTMKKFWTEYMHLSECSGSMAVTPTRRGGDWYDGGQYREIYMHTWTSQTSRVKSAWKAATEAIGTCNEAIRKLQNSEILTEEEKAQDVADLRGVRAFWIYVMMDYWGNIPLLTEFHPTDKVFPGNSSRQEVFDWLIQEVEEIKDICPPATTENYGSFTQGAAYSLLAKLYLNAEAWGVTFSGNAYQKVIDNCDKVMAMGYILEPNWKDNFSVTNENSKEAILAATFSSSDTGNDGNVKNELHNNTLHYKDYLSLGITASGTWNGICAQPEYVRLFDEEDARLDGTFLTGLMIDKSTGKPIMTDHNNELNHTIDVNMIPGMEYDGTNWSAVEQHDGARCFKWEFASDLTSSMGNDFHIFRLADIYLMKAEALLRGGGSVSEATALVNTIRERGYGNSDHNYATVTLKEVQLERRLELAWEVYSRQDDIRFGCFTTGMWPQSNCERKADDYLKLLPVSQDAWQVNPNLKQNPGYAAFSK"}}, "experiment_in_all_cases": "glycan array binding signal (z-score within array); higher = stronger binding", "conditions_in_all_cases": "glycan notation: IUPAC condensed, linker removed", "key": {"Neu5Ac(a2-8)Neu5Ac": {"molecular_target": "Neu5Ac(a2-8)Neu5Ac", "in_short": "(§1)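 Glycan array data were curated from 3228 arrays in the Consortium for Functional Glycomics database and kept only where the protein sequence was available. Glycan names were converted to IUPAC-condensed notation, and columns mapping to the same glycan were averaged. The binding signal is a within-array Z-score, averaged across arrays of the same protein sequence at different concentrations or buffers and across linkers. Negative Z-scores can be read as non-binding.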"}, "[1]": {"molecular_target": "Neu5Ac(a2-8)Neu5Ac(a2-3)Gal(b1-3)GalNAc(b1-4)[Neu5Ac(a2-3)]Gal(b1-4)Glc", "in_short": "as §1"}, "[2]": {"molecular_target": "Neu5Ac(a2-8)Neu5Ac(a2-3)Gal(b1-3)GalNAc(b1-4)[Neu5Ac(a2-8)Neu5Ac(a2-3)]Gal(b1-4)Glc", "in_short": "as §1"}, "[3]": {"molecular_target": "Neu5Ac(a2-8)Neu5Ac(a2-3)Gal(b1-4)Glc", "in_short": "as §1"}, "[4]": {"molecular_target": "Neu5Ac(a2-8)Neu5Ac(a2-3)Gal(b1-4)GlcNAc", "in_short": "as §1"}, "[5]": {"molecular_target": "Neu5Ac(a2-8)Neu5Ac(a2-3)[Gal(b1-3)GalNAc(b1-4)]Gal(b1-4)Glc", "in_short": "as §1"}, "[6]": {"molecular_target": "Neu5Ac(a2-8)Neu5Ac(a2-3)[GalNAc(b1-4)]Gal(b1-4)Glc", "in_short": "as §1"}, "[7]": {"molecular_target": "Neu5Ac(a2-8)Neu5Ac(a2-8)Neu5Ac", "in_short": "as §1"}, "[8]": {"molecular_target": "Neu5Ac(a2-8)Neu5Ac(a2-8)Neu5Ac(a2-3)Gal(b1-4)Glc", "in_short": "as §1"}, "[9]": {"molecular_target": "Neu5Ac(a2-8)Neu5Ac(a2-8)Neu5Ac(a2-3)[Gal(b1-3)GalNAc(b1-4)]Gal(b1-4)Glc", "in_short": "as §1"}, "[10]": {"molecular_target": "Neu5Ac(a2-8)Neu5Ac(a2-8)Neu5Ac(a2-3)[GalNAc(b1-4)]Gal(b1-4)Glc", "in_short": "as §1"}, "[11]": {"molecular_target": "Neu5Ac(a2-8)Neu5Ac(a2-8)Neu5Ac(a2-8)Neu5Ac(a2-3)[GalNAc(b1-4)]Gal(b1-4)Glc", "in_short": "as §1"}, "[12]": {"molecular_target": "Neu5Ac(a2-8)Neu5Gc(a2-3)Gal(b1-4)GlcNAc", "in_short": "as §1"}, "[13]": {"molecular_target": "Neu5Ac(b2-6)Gal(b1-4)GlcNAc", "in_short": "as §1"}, "Neu5Ac(b2-6)GalNAc": {"molecular_target": "Neu5Ac(b2-6)GalNAc", "in_short": "as §1"}, "[14]": {"molecular_target": "Neu5Ac9Ac(a2-3)Gal(b1-3)GlcNAc", "in_short": "as §1"}, "[15]": {"molecular_target": "Neu5Ac9Ac(a2-3)Gal(b1-4)GlcNAc", "in_short": "as §1"}, "[16]": {"molecular_target": "Neu5Ac9Ac(a2-6)Gal(b1-4)GlcNAc", "in_short": "as §1"}, "[17]": {"molecular_target": "Neu5Gc(a2-3)Gal(b1-3)GlcNAc", "in_short": "as §1"}, "[18]": {"molecular_target": "Neu5Gc(a2-3)Gal(b1-3)[Fuc(a1-4)]GlcNAc", "in_short": "as §1"}, "Neu5Gc(a2-3)Gal(b1-4)Glc": {"molecular_target": "Neu5Gc(a2-3)Gal(b1-4)Glc", "in_short": "as §1"}, "[19]": {"molecular_target": "Neu5Gc(a2-3)Gal(b1-4)GlcNAc", "in_short": "as §1"}, "[20]": {"molecular_target": "Neu5Gc(a2-3)Gal(b1-4)GlcNAc(b1-3)Gal(b1-4)GlcNAc(b1-2)Man(a1-3)[Neu5Gc(a2-3)Gal(b1-4)GlcNAc(b1-3)Gal(b1-4)GlcNAc(b1-2)Man(a1-6)]Man(b1-4)GlcNAc(b1-4)GlcNAc", "in_short": "as §1"}, "[21]": {"molecular_target": "Neu5Gc(a2-3)Gal(b1-4)[Fuc(a1-3)]GlcNAc", "in_short": "as §1"}, "[22]": {"molecular_target": "Neu5Gc(a2-6)Gal(b1-4)GlcNAc", "in_short": "as §1"}, "Neu5Gc(a2-6)GalNAc": {"molecular_target": "Neu5Gc(a2-6)GalNAc", "in_short": "as §1"}, "[23]": {"molecular_target": "Neu5Gc(a2-8)Neu5Ac(a2-3)Gal(b1-4)GlcNAc", "in_short": "as §1"}, "[24]": {"molecular_target": "Neu5Gc(a2-8)Neu5Gc(a2-3)Gal(b1-4)GlcNAc", "in_short": "as §1"}, "[25]": {"molecular_target": "Neu5Gc(a2-8)Neu5Gc(a2-3)Gal(b1-4)GlcNAc(b1-3)Gal(b1-4)GlcNAc", "in_short": "as §1"}, "[26]": {"molecular_target": "Neu5Gc(a2-8)Neu5Gc(a2-6)Gal(b1-4)GlcNAc", "in_short": "as §1"}, "[27]": {"molecular_target": "Neu5Gc(b2-6)Gal(b1-4)GlcNAc", "in_short": "as §1"}}, "note": "The list shows a part of the results."}
{"binder": "B1", "values": [{"measurement": "glycan array binding signal (z-score)", "setting": "Neu5Ac(a2-8)Neu5Ac", "value": -0.204}, {"measurement": "glycan array binding signal (z-score)", "setting": "[1]", "value": 0.057}, {"measurement": "glycan array binding signal (z-score)", "setting": "[2]", "value": 0.181}, {"measurement": "glycan array binding signal (z-score)", "setting": "[3]", "value": -0.765}, {"measurement": "glycan array binding signal (z-score)", "setting": "[4]", "value": -0.127}, {"measurement": "glycan array binding signal (z-score)", "setting": "[5]", "value": -0.342}, {"measurement": "glycan array binding signal (z-score)", "setting": "[6]", "value": -1.17}, {"measurement": "glycan array binding signal (z-score)", "setting": "[7]", "value": -0.825}, {"measurement": "glycan array binding signal (z-score)", "setting": "[8]", "value": 0.309}, {"measurement": "glycan array binding signal (z-score)", "setting": "[9]", "value": -0.501}, {"measurement": "glycan array binding signal (z-score)", "setting": "[10]", "value": -0.621}, {"measurement": "glycan array binding signal (z-score)", "setting": "[11]", "value": -0.481}, {"measurement": "glycan array binding signal (z-score)", "setting": "[12]", "value": 12.8}, {"measurement": "glycan array binding signal (z-score)", "setting": "[13]", "value": -0.314}, {"measurement": "glycan array binding signal (z-score)", "setting": "Neu5Ac(b2-6)GalNAc", "value": -0.517}, {"measurement": "glycan array binding signal (z-score)", "setting": "[14]", "value": -0.269}, {"measurement": "glycan array binding signal (z-score)", "setting": "[15]", "value": -0.365}, {"measurement": "glycan array binding signal (z-score)", "setting": "[16]", "value": 0.184}, {"measurement": "glycan array binding signal (z-score)", "setting": "[17]", "value": -0.296}, {"measurement": "glycan array binding signal (z-score)", "setting": "[18]", "value": -0.578}, {"measurement": "glycan array binding signal (z-score)", "setting": "Neu5Gc(a2-3)Gal(b1-4)Glc", "value": 0.25}, {"measurement": "glycan array binding signal (z-score)", "setting": "[19]", "value": -0.002}, {"measurement": "glycan array binding signal (z-score)", "setting": "[20]", "value": 1.7}, {"measurement": "glycan array binding signal (z-score)", "setting": "[21]", "value": -0.444}, {"measurement": "glycan array binding signal (z-score)", "setting": "[22]", "value": -0.019}, {"measurement": "glycan array binding signal (z-score)", "setting": "Neu5Gc(a2-6)GalNAc", "value": -1.21}, {"measurement": "glycan array binding signal (z-score)", "setting": "[23]", "value": -0.206}, {"measurement": "glycan array binding signal (z-score)", "setting": "[24]", "value": 0.148}, {"measurement": "glycan array binding signal (z-score)", "setting": "[25]", "value": -0.78}, {"measurement": "glycan array binding signal (z-score)", "setting": "[26]", "value": -0.04}, {"measurement": "glycan array binding signal (z-score)", "setting": "[27]", "value": -0.722}]}
